From patent US20160201132A1, “GENE EXPRESSION BIOMARKERS OF LAQUINIMOD RESPONSIVENESS” (Teva Pharmaceutical Industries Ltd., priority 2013, published 2016)
The source gives many values for each of these; only a part stands here.

System: PBMC of RRMS patients
Experiment: Gene expression microarray analysis (HG-U133A-2) of PBMC from RRMS patients treated with LAQ, ancillary study to ALLEGRO
Format: in vivo, human
Conditions: for Fold-Change (4.0 vs. 0.0): after six months of treatment; for Fold-Change (1.0 vs. 0.0): one month of treatment
Excerpt: The goal of this ancillary study was to characterize gene expression changes and corresponding biological mechanisms induced in PBMC of RRMS patients by LAQ treatment. According to ALLEGRO clinical trial inclusion criteria, 25 patients were randomly assigned to receive LAQ (n=13, age 38.8±2.3 years, female/male ratio: 8/5) or placebo (n=12, age 37.2±3.4 years, female/male ratio: 8/4).
Peripheral blood samples were obtained from RRMS patients at baseline before start of LAQ treatment or placebo, after 0, 1, 6 and 24 month of treatment (visit 0, 1, 6 and 7 according to ALLEGRO clinical trial protocol correspondently) for gene microarray analysis.
Briefly, 1) Peripheral blood mononuclear cells (PBMC) were obtained from RRMS patients that participated in ALLEGRO and were treated daily with 0.6 mg LAQ or placebo. PBMC were subjected for gene expression analysis (HU-133A-2-Affymatrix arrays) at baseline and at 1 and 6 months of LAQ treatment; 2) Data was analyzed by Partek Genomics Solution software. Most informative genes (MIGs) were defined as those that differentiated between groups with p<0.01. Gene functional annotation, enrichment and pathway analysis were performed by Ingenuity software. For each time point, genes that changed in placebo group were excluded from further analysis; and 3) Verification of LAQ related mechanism was performed by Western blot.
PBMC were extracted from 15 ml peripheral blood, separated by Ficoll-Hypaque gradient. Total RNA was extracted using both Trizol (Invitrogen, USA) and Phase-Lock-Gel columns (Eppendorf, Germany) including a DNase digestion step. RNA integrity was assessed by RNA Experion automated electrophoresis system (Bio-Rad Laboratories, Hercules, Calif.).
Probe synthesis using 3 μg total RNA, hybridization, detection, and scanning was performed according to the standard Affymetrix, Inc. USA protocols; cDNA was synthesized using the Two-Cycle cDNA Synthesis Kit (Affymetrix, Inc., USA), and in-vitro transcription performed with the GeneChip IVT Labeling Kit (Affymetrix, Inc., USA). The biotin-labeled IVT-RNA was hybridized to HG-U133A-2 arrays containing 18,400 gene transcripts, each corresponding to 14,500 well-annotated human genes, washed in a GeneChip Fluidics Station 450 (Hewlett Packard, USA, GeneArray-™ scanner G2500A) and scanned according to the manufacturer's protocol (Affymetrix, Inc., USA).
Data analysis was performed on Partek Genomics Solution software (www.partek.com; Partek Incorporated, St. Louis, Mo.). Expression values were computed from raw CEL files by applying the Robust Multi-Chip Average (RMA) background correction algorithm. RMA correction included: 1) values background correction; 2) quintile normalization; 3) log 2 transformation; and 4) median polish summarization. The ANOVA, Repeated Measures and correlation analysis implicated in Partek software ware applied to evaluate LAQ effects. Most informative genes MIGs were defined as those that differentiated between experimental groups with p<0.01. All p-values were calculated for False Discovery Rate (FDR) multiple test correction at p=0.05.
Additionally, significance of individual genes was tested by parametric T-test and non parametric Mann-Whitney test using Bootstrapping approach based on repeated permutations of the data with 5% FDR for multiple testing.
Gene functional annotation, enrichment, and pathway analyses to identify the leading biological pathways that operated under LAQ treatment were performed by Ingenuity Pathways Analysis software (www.ingenuity.com).
ANOVA analysis was used to compare PBMC gene expression after 1, 6 or 24 month of LAQ treatment with baseline gene expression.
For each time point inventors performed analysis source of variation in dataset. (FIG. 1). Age, gender and batch effects were considered as confounders regarding LAQ or Placebo related changes. For each time point genes associated with Placebo effect were evaluated and excluded from further analysis. […]

With `CCN(C(=O)c1c(O)c2c(Cl)cccc2n(C)c1=O)c1ccccc1` [LAQ, 5-chloro-N-ethyl-4-hydroxy-1-methyl-2-oxo-N-phenyl-1,2-dihydroquinoline-3-carboxamide] the “Fold-Change (4.0 vs. 0.0)” value (LOC729143 /// MPRIP expression) was −1.213, the “Fold-Change (4.0 vs. 0.0)” value (LOH3CR2A expression) was −1.216 and the “Fold-Change (4.0 vs. 0.0)” value (LPIN1 expression) was −1.21. The “Fold-Change (4.0 vs. 0.0)” value (LPO expression) was −1.213, the “Fold-Change (1.0 vs. 0.0)” value (LTBP1 202728_s_at) was −1.48 and the “Fold-Change (1.0 vs. 0.0)” value (LTBP1 202729_s_at) was −1.71. The “Fold-Change (4.0 vs. 0.0)” value (LTBP4 expression) was −1.202, the “Fold-Change (4.0 vs. 0.0)” value (MAGEL2 expression) was −1.218 and the “Fold-Change (4.0 vs. 0.0)” value (MAP2K5 expression) was −1.213. For the same compound, the “Fold-Change (4.0 vs. 0.0)” value (MAP2 expression) was −1.201, the “Fold-Change (1.0 vs. 0.0)” value (MARCH2 210075_at) was −1.3917 and the “Fold-Change (4.0 vs. 0.0)” value (MASP1 expression) was −1.2109. For the same compound, the “Fold-Change (4.0 vs. 0.0)” value (MAST1 expression) was −1.216, the “Fold-Change (1.0 vs. 0.0)” value (MAX 209331_s_at) was −1.245 and the “Fold-Change (4.0 vs. 0.0)” value (MBD2 expression) was −1.209. The “Fold-Change (4.0 vs. 0.0)” value (MBNL2 expression) was −1.212, the “Fold-Change (4.0 vs. 0.0)” value (MBP expression) was −1.217 and the “Fold-Change (4.0 vs. 0.0)” value (MC4R expression) was −1.206. For the same compound, the “Fold-Change (4.0 vs. 0.0)” value (MCM10 expression) was −1.202, the “Fold-Change (4.0 vs. 0.0)” value (METTL10 expression) was −1.207 and the “Fold-Change (4.0 vs. 0.0)” value (MFAP2 expression) was −1.202. The “Fold-Change (4.0 vs. 0.0)” value (MFAP4 expression) was −1.2209, the “Fold-Change (4.0 vs. 0.0)” value (MLXIPL expression) was −1.224 and the “Fold-Change (1.0 vs. 0.0)” value (MMRN1 205612_at) was −1.376. The “Fold-Change (4.0 vs. 0.0)” value (MOGAT2 expression) was −1.214, the “Fold-Change (4.0 vs. 0.0)” value (MPL expression) was −1.207 and the “Fold-Change (4.0 vs. 0.0)” value (MT1E /// MT1H /// MT1M expression) was −1.214. The “Fold-Change (1.0 vs. 0.0)” value (MTMR1 213511_s_at) was −1.098, the “Fold-Change (4.0 vs. 0.0)” value (MTSS1L expression) was −1.22 and the “Fold-Change (4.0 vs. 0.0)” value (MTSS1 expression) was −1.219. For the same compound, the “Fold-Change (4.0 vs. 0.0)” value (MYF6 expression) was −1.216, the “Fold-Change (4.0 vs. 0.0)” value (MYL10 expression) was −1.196 and the “Fold-Change (4.0 vs. 0.0)” value (MYO3A expression) was −1.197. The “Fold-Change (4.0 vs. 0.0)” value (NAPA expression) was −1.202, the “Fold-Change (4.0 vs. 0.0)” value (NARFL expression) was −1.199 and the “Fold-Change (4.0 vs. 0.0)” value (NCR2 expression) was −1.196. The “Fold-Change (1.0 vs. 0.0)” value (NKTR 202380_s_at) was −1.123, the “Fold-Change (4.0 vs. 0.0)” value (NNMT expression) was −1.21 and the “Fold-Change (4.0 vs. 0.0)” value (NTRK2 expression) was −1.209. For the same compound, the “Fold-Change (4.0 vs. 0.0)” value (NXN expression) was −1.214, the “Fold-Change (4.0 vs. 0.0)” value (NXPH3 expression) was −1.208 and the “Fold-Change (4.0 vs. 0.0)” value (OBSL1 expression) was −1.201. For the same compound, the “Fold-Change (4.0 vs. 0.0)” value (OR2S2 expression) was −1.196, the “Fold-Change (4.0 vs. 0.0)” value (OR10H3 expression) was −1.2243 and the “Fold-Change (4.0 vs. 0.0)” value (ORC1L expression) was −1.224. The “Fold-Change (4.0 vs. 0.0)” value (P2RY1 expression) was −1.214, the “Fold-Change (4.0 vs. 0.0)” value (PARD6B expression) was −1.207 and the “Fold-Change (4.0 vs. 0.0)” value (PAWR expression) was −1.2152. The “Fold-Change (1.0 vs. 0.0)” value (PCDH24 220186_s_at) was −1.121, the “Fold-Change (4.0 vs. 0.0)” value (PCIF1 expression) was −1.223 and the “Fold-Change (1.0 vs. 0.0)” value (PCNP 217816_s_at) was −1.135. For the same compound, the “Fold-Change (4.0 vs. 0.0)” value (PCP4 expression) was −1.203, the “Fold-Change (4.0 vs. 0.0)” value (PDE6H expression) was −1.203 and the “Fold-Change (1.0 vs. 0.0)” value (PF4 206390_x_at) was −1.764. For the same compound, the “Fold-Change (4.0 vs. 0.0)” value (PHF20L1 expression) was −1.208, the “Fold-Change (4.0 vs. 0.0)” value (PI15 expression) was −1.216 and the “Fold-Change (4.0 vs. 0.0)” value (PKLR expression) was −1.219. The “Fold-Change (4.0 vs. 0.0)” value (PLA2G5 expression) was −1.221, the “Fold-Change (4.0 vs. 0.0)” value (PLCD1 expression) was −1.2171 and the “Fold-Change (4.0 vs. 0.0)” value (PLCE1 expression) was −1.225. For the same compound, the “Fold-Change (4.0 vs. 0.0)” value (PLSCR2 expression) was −1.217, the “Fold-Change (4.0 vs. 0.0)” value (PLXNA2 expression) was −1.199 and the “Fold-Change (4.0 vs. 0.0)” value (PNLIPRP1 expression) was −1.207. The “Fold-Change (4.0 vs. 0.0)” value (POLR3G expression) was −1.22, the “Fold-Change (1.0 vs. 0.0)” value (POM121 /// POM121C 212178_s_at) was −1.091 and the “Fold-Change (1.0 vs. 0.0)” value (PPBP 214146_s_at) was −1.46. For the same compound, the “Fold-Change (4.0 vs. 0.0)” value (PPP2R3A expression) was −1.197, the “Fold-Change (4.0 vs. 0.0)” value (PRAMEF1 /// PRAMEF2 expression) was −1.221 and the “Fold-Change (4.0 vs. 0.0)” value (PRELP expression) was −1.214. For the same compound, the “Fold-Change (1.0 vs. 0.0)” value (PRKAR2B 203680_at) was −1.876, the “Fold-Change (4.0 vs. 0.0)” value (PRLR expression) was −1.196 and the “Fold-Change (4.0 vs. 0.0)” value (PRPH expression) was −1.204. The “Fold-Change (4.0 vs. 0.0)” value (PSG3 expression) was −1.202, the “Fold-Change (1.0 vs. 0.0)” value (PSMD11 208776_at) was −1.122 and the “Fold-Change (1.0 vs. 0.0)” value (PTCRA 211252_x_at) was −1.389. The “Fold-Change (4.0 vs. 0.0)” value (RAB40C expression) was −1.207, the “Fold-Change (4.0 vs. 0.0)” value (RANBP3 expression) was −1.2033 and the “Fold-Change (4.0 vs. 0.0)” value (RAPGEFL1 expression) was −1.218. The “Fold-Change (4.0 vs. 0.0)” value (RARG expression) was −1.212, the “Fold-Change (4.0 vs. 0.0)” value (RASGRP2 expression) was −1.211 and the “Fold-Change (4.0 vs. 0.0)” value (RBMY2FP expression) was −1.211. The “Fold-Change (4.0 vs. 0.0)” value (RDH8 expression) was −1.215.
